By UniProt entry, the sequences of proteins in these tests, tags left out. Where a name states a change or a piece, a line headed by the entry shows the natural chain unless it says otherwise.
UniProt Q14166: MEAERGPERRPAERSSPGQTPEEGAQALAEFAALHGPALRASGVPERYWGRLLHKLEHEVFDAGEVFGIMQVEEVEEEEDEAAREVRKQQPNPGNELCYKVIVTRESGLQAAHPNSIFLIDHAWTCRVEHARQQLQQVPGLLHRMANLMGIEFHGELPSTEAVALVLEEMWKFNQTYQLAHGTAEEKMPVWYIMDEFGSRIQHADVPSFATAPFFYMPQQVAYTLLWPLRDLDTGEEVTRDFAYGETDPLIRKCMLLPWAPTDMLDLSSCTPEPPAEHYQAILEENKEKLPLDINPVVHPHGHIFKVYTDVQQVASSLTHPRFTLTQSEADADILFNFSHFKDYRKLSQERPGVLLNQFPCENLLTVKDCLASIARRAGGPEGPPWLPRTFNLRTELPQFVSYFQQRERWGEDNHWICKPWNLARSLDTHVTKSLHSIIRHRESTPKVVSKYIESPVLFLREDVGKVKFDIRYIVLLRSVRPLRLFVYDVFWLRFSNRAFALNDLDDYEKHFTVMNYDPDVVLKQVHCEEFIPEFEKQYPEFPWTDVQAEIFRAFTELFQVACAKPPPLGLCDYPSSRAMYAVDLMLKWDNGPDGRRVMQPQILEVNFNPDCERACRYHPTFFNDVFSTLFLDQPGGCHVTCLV
UniProt A0A8I3Q624: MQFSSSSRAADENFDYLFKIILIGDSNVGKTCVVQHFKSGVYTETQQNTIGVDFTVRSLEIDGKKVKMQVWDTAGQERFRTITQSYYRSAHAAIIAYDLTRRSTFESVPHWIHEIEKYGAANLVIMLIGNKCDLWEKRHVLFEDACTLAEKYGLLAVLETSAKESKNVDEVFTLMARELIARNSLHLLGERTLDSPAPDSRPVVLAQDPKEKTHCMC

In publication PMC10883266, “TTLL12 is required for primary ciliary axoneme formation in polarized epithelial cells” (EMBO Reports, 2023):

Target: GFP-TTLL12 (human) (UniProt Q14166)
Test: affinity purification with mass spectrometry; MDCK cells expressing GFP alone or GFP-TTLL12 lysed in 20 mM HEPES pH 7.4, 150 mM NaCl, 1% Triton X-100; GST-tagged GFP nanobody on Affigel resin; hits enriched at least sixfold over GFP alone

Q: With “endogenous Rab19 (MDCK cells) (from UniProt A0A8I3Q624)” as the substance, how does the binding read?
A: binds

These are yes or no findings as the source states them, for the method shown. Binding seen in cells or lysates may run through a third protein. Here binding means that the protein was enriched with, or labelled near, the bait; the list need not be complete.
